Where two headings read alike, the source gives them in different places. Results are given in words; binding and its absence hold for the method and conditions named. Binding seen in cells or lysates may run through a third protein. A yes stands for co-enrichment or nearness to the bait. Other partners may have been found.

Amino acid sequences for entries named in this document (tags omitted). A change or cut given only in a name is not applied to a line headed by its entry. Chains listed by the source or under a name are the forms on record and can include a tag or linker.
myc-BirA*-progerin (expressed in TERT+ human fibroblasts) (P02545, form named): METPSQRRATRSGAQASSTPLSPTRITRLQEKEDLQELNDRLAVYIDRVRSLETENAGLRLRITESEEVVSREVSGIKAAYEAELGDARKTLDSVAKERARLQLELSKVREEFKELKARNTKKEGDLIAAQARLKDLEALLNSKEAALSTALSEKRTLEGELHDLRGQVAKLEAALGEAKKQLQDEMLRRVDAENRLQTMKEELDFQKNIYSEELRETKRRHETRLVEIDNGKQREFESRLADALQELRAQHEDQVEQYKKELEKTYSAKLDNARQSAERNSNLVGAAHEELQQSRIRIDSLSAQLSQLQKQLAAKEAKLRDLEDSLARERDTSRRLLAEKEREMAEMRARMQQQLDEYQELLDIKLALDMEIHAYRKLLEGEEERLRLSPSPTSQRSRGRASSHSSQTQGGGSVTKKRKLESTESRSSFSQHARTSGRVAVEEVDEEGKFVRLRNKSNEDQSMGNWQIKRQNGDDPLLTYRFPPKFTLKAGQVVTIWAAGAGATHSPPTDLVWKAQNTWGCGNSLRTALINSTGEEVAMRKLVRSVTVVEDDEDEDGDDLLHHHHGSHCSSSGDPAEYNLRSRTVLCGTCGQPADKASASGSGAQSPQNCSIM
UniProt P12270: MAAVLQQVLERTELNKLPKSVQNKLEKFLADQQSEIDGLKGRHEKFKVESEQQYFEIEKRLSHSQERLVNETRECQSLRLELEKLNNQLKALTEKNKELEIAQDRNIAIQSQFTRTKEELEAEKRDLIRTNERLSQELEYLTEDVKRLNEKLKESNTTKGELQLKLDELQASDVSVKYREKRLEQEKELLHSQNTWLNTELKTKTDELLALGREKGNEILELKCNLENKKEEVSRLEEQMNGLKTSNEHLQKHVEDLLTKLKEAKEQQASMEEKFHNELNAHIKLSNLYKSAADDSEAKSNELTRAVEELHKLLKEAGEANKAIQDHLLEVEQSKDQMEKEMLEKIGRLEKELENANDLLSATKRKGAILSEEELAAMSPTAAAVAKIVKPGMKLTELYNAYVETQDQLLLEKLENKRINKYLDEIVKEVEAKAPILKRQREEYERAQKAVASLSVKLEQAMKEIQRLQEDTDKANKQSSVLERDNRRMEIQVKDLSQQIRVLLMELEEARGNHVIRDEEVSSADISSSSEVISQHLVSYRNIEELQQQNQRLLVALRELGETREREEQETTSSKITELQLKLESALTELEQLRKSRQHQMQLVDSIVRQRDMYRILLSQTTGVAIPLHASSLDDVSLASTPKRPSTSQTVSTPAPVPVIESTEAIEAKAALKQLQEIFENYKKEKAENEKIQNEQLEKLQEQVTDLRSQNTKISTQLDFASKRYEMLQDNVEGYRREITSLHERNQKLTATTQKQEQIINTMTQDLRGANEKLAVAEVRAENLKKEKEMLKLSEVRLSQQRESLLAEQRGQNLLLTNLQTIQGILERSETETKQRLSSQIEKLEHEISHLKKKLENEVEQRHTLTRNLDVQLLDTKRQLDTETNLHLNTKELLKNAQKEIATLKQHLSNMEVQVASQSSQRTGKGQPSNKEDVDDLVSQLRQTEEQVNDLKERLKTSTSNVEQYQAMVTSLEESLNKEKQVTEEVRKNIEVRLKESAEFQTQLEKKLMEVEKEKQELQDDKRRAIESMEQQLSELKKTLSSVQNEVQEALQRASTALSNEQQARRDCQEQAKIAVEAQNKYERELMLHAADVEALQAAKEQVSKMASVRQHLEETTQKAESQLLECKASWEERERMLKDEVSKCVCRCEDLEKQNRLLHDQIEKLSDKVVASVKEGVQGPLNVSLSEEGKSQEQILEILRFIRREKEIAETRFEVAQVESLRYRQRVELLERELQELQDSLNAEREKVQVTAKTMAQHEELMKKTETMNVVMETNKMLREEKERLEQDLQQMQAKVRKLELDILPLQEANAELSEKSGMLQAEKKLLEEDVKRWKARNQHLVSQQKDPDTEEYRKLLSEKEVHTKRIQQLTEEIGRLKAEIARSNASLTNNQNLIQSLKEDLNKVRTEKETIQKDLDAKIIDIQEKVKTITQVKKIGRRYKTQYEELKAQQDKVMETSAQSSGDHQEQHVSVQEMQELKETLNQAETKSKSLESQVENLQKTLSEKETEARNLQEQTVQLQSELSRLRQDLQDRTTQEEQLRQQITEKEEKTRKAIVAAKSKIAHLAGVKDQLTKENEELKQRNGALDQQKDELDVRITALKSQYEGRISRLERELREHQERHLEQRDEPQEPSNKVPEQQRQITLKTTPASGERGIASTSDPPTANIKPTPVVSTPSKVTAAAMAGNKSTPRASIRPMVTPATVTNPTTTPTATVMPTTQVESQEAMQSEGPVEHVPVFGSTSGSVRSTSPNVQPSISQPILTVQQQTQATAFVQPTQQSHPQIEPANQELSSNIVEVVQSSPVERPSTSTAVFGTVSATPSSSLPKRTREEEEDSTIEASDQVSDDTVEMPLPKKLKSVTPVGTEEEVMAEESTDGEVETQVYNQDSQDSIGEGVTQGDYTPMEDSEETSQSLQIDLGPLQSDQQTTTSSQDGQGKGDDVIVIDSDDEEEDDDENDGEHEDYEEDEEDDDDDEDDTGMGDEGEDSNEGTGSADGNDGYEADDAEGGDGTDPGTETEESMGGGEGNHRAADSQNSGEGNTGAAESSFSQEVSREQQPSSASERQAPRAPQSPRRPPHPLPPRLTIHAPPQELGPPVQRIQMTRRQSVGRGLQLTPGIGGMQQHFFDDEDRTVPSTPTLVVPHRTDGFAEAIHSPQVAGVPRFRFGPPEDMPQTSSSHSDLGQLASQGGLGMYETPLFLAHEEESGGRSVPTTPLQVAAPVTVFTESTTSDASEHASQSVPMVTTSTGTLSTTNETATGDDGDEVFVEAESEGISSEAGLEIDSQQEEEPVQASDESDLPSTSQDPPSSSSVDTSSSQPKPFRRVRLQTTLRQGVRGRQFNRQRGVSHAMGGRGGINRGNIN

Consider 5 molecules from PMC4565980.

In test [1] the target is myc-BirA*-progerin (expressed in TERT+ human fibroblasts) (human) (UniProt P02545). As to the kind of experiment: proximity labelling; BioID: myc-BirA* fusions doxycycline-induced in TERT+ human fibroblasts, 50 µM biotin for 24 hr, lysis under denaturing conditions, biotinylated proteins purified on streptavidin-coupled magnetic beads, SDS-PAGE, mass spectrometry (emPAI) and western blot. A general note: In western blotting, separated proteins are transferred to a membrane and probed.

Test [2] deals with myc-BirA*-lamin A (expressed in TERT+ human fibroblasts) (human) (UniProt P02545). The test is described as above.
Test [3] deals with myc-BirA*-progerin (expressed in mouse ESC) (human) (UniProt P02545). The test can be described thus: proximity labelling; BioID: myc-BirA* fusions doxycycline-induced in pluripotent mouse ESC, mass spectrometry of pull-down fractions (emPAI).
In test [4] the target is myc-BirA*-lamin A (expressed in mouse ESC) (human) (UniProt P02545). The description is as above.
Test [5] concerns the target myc-BirA*-progerin (expressed in TERT+ human fibroblasts) (human) (UniProt P02545). As to the kind of experiment: proximity labelling; BioID: myc-BirA* fusions doxycycline-induced in TERT+ human fibroblasts, 50 µM biotin for 24 hr, lysis under denaturing conditions, biotinylated proteins purified on streptavidin-coupled magnetic beads, SDS-PAGE, mass spectrometry (emPAI) and western blot. The source holds these as a separate data set.

The target in test [6] is myc-BirA*-lamin A (expressed in TERT+ human fibroblasts) (human) (UniProt P02545). Described as above. This is another data set of the same source.

Turning to “nuclear pore complex protein TPR (endogenous, human fibroblasts) (from UniProt P12270 1-2363)”, the binding entry in test [1] and in test [2] was “binds” each time.

B1: lamin B2 (endogenous, mouse ESC) (protein, UniProt P21619 1-596)
chain: MASLPPHAGPATPLSPTRLSRLQEKEELRELNDRLAHYIDRVRALELENDRLLLRISEKEEVTTREVSGIKTLYESELADARRVLDETARERARLQIEIGKVQAELEEARKSAKKREGELTVAQGRVKDLESLFHRSEAELATALSDKQGLETEVAELRAQLAKAEDGHAVAKKQLEKETLMRVDLENRCQSLQEELAFSKSVFEEEVRETRRRHERRLVEVDSSRQQEYDFKMAQALEDLRSQHDEQVRLYRVELEQTYQAKLDNAKLLSDQNDKAAHAAREELKEARMRVESLSYQLLGLQKQASAAENHIHELEEALAGERDKFRKMLDAKEQEMTEVRDAMQQQLAEYQELLDIKLALDMEISAYRKLLEGEEERLKLSPSPSSRITISRATSSSSSSSGVGMSVGQGRGKRRRLETEDTSGSPSRASRVSSGSRLAQQTVATGVVNIDEVDPEGRFVRLKNSSDKDQSLGNWRIKRQVLEGEDIAYKFTPKYVLRAGQTVTVWAAGAGATHSPPSTLVWKSQTNWGPGESFRTALVSADGEEVAVKAAKHSSVQGRENGEEEEEEEAEFGEEDLFHQQGDPRTTSRGCRLM
With B1, the binding entry in test [3] and in test [4] was “binds” in each case.

B2: LAP2α (endogenous, human fibroblasts) (protein, UniProt P42166 1-694)
chain: MPEFLEDPSVLTKDKLKSELVANNVTLPAGEQRKDVYVQLYLQHLTARNRPPLPAGTNSKGPPDFSSDEEREPTPVLGSGAAAAGRSRAAVGRKATKKTDKPRQEDKDDLDVTELTNEDLLDQLVKYGVNPGPIVGTTRKLYEKKLLKLREQGTESRSSTPLPTISSSAENTRQNGSNDSDRYSDNEEGKKKEHKKVKSTRDIVPFSELGTTPSGGGFFQGISFPEISTRPPLGSTELQAAKKVHTSKGDLPREPLVATNLPGRGQLQKLASERNLFISCKSSHDRCLEKSSSSSSQPEHSAMLVSTAASPSLIKETTTGYYKDIVENICGREKSGIQPLCPERSHISDQSPLSSKRKALEESESSQLISPPLAQAIRDYVNSLLVQGGVGSLPGTSNSMPPLDVENIQKRIDQSKFQETEFLSPPRKVPRLSEKSVEERDSGSFVAFQNIPGSELMSSFAKTVVSHSLTTLGLEVAKQSQHDKIDASELSFPFHESILKVIEEEWQQVDRQLPSLACKYPVSSREATQILSVPKVDDEILGFISEATPLGGIQAASTESCNQQLDLALCRAYEAAASALQIATHTAFVAKAMQADISQAAQILSSDPSRTHQALGILSKTYDAASYICEAAFDEVKMAAHTMGNATVGRRYLWLKDCKINLASKNKLASTPFKGGTLFGGEVCKVIKKRGNKH
As for B2, the binding result in test [5] and in test [6] was “binds” each time.

B3: LAP2β (endogenous, human fibroblasts) (protein, UniProt P42167 1-454)
chain: MPEFLEDPSVLTKDKLKSELVANNVTLPAGEQRKDVYVQLYLQHLTARNRPPLPAGTNSKGPPDFSSDEEREPTPVLGSGAAAAGRSRAAVGRKATKKTDKPRQEDKDDLDVTELTNEDLLDQLVKYGVNPGPIVGTTRKLYEKKLLKLREQGTESRSSTPLPTISSSAENTRQNGSNDSDRYSDNEEDSKIELKLEKREPLKGRAKTPVTLKQRRVEHNQSYSQAGITETEWTSGSSKGGPLQALTRESTRGSRRTPRKRVETSEHFRIDGPVISESTPIAETIMASSNESLVVNRVTGNFKHASPILPITEFSDIPRRAPKKPLTRAEVGEKTEERRVERDILKEMFPYEASTPTGISASCRRPIKGAAGRPLELSDFRMEESFSSKYVPKYVPLADVKSEKTKKGRSIPVWIKILLFVVVAVFLFLVYQAMETNQVNPFSNFLHVDPRKSN
Turning to B3, in test [6], the binding result is “binds”.

B4: lamin B2 (endogenous, human fibroblasts) (protein, UniProt Q03252 1-620)
chain: MSPPSPGRRREQRRPRAAATMATPLPGRAGGPATPLSPTRLSRLQEKEELRELNDRLAHYIDRVRALELENDRLLLKISEKEEVTTREVSGIKALYESELADARRVLDETARERARLQIEIGKLRAELDEVNKSAKKREGELTVAQGRVKDLESLFHRSEVELAAALSDKRGLESDVAELRAQLAKAEDGHAVAKKQLEKETLMRVDLENRCQSLQEELDFRKSVFEEEVRETRRRHERRLVEVDSSRQQEYDFKMAQALEELRSQHDEQVRLYKLELEQTYQAKLDSAKLSSDQNDKAASAAREELKEARMRLESLSYQLSGLQKQASAAEDRIRELEEAMAGERDKFRKMLDAKEQEMTEMRDVMQQQLAEYQELLDVKLALDMEINAYRKLLEGEEERLKLSPSPSSRVTVSRATSSSSGSLSATGRLGRSKRKRLEVEEPLGSGPSVLGTGTGGSGGFHLAQQASASGSVSIEEIDLEGKFVQLKNNSDKDQSLGNWRIKRQVLEGEEIAYKFTPKYILRAGQMVTVWAAGAGVAHSPPSTLVWKGQSSWGTGESFRTVLVNADGEEVAMRTVKKSSVMRENENGEEEEEEAEFGEEDLFHQQGDPRTTSRGCYVM
Regarding B4, the binding result in test [5] and in test [6] was “binds” each time.
